# Primary screen of a compound library

Protein sequences, listed by entry. Tags and fused reporters are not part of them. Residues count along the entry.
UniProt I6X8D2, whole entry: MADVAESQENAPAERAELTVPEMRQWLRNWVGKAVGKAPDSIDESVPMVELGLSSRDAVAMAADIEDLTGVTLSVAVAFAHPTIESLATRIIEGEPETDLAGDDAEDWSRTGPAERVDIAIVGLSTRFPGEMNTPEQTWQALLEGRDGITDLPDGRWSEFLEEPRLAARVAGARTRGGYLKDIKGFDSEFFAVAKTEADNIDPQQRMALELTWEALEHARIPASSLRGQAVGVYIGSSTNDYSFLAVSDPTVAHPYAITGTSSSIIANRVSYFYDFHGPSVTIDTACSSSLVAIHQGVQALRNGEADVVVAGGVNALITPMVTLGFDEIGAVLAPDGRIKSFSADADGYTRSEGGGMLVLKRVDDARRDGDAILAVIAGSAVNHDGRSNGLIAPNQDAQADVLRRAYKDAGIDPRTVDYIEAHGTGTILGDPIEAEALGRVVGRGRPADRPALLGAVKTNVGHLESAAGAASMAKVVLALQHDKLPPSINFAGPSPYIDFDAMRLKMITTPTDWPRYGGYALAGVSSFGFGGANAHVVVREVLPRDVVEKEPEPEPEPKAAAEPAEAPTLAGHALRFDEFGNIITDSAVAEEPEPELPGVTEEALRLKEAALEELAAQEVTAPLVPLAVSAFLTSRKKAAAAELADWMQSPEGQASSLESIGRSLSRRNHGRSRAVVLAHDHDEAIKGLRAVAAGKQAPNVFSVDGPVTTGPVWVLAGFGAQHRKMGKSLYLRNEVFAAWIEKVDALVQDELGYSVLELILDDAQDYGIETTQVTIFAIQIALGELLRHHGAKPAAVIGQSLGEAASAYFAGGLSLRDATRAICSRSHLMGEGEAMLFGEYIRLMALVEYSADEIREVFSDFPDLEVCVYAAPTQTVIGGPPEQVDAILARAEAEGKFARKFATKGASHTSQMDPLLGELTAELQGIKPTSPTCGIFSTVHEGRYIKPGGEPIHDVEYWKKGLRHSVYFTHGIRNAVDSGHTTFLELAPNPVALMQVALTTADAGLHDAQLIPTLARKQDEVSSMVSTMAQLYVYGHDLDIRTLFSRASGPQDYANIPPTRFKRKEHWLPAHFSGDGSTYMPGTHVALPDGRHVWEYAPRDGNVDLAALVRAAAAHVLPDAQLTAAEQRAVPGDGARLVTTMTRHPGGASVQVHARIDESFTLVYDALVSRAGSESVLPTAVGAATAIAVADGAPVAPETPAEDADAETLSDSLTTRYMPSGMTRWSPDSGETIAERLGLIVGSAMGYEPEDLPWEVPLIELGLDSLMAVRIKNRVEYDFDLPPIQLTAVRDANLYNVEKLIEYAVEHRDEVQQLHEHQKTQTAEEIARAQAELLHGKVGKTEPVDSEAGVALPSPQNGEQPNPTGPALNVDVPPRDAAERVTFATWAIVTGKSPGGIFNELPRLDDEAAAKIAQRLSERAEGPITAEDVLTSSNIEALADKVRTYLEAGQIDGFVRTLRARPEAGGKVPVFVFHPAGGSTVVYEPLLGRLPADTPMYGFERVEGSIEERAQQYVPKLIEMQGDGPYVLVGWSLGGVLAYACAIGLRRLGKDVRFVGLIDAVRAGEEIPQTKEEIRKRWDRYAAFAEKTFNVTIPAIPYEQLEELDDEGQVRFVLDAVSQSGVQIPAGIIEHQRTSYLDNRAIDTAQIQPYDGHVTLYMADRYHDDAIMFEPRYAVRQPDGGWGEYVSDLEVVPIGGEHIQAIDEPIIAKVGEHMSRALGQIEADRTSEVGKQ
UniProt A4I591, 1-473: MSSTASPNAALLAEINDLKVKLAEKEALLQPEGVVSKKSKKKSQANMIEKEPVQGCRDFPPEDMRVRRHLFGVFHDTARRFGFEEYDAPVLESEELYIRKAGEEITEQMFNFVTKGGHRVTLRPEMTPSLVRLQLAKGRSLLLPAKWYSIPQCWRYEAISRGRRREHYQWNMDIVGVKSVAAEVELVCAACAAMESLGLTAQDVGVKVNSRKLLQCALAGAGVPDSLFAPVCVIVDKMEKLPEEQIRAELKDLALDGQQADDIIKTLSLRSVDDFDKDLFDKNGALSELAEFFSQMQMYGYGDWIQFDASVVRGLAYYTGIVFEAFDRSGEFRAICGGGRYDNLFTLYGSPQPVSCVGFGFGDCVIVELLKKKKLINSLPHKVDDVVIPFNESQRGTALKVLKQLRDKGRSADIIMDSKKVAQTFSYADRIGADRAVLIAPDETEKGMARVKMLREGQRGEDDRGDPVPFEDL
UniProt P9WNZ1, whole entry: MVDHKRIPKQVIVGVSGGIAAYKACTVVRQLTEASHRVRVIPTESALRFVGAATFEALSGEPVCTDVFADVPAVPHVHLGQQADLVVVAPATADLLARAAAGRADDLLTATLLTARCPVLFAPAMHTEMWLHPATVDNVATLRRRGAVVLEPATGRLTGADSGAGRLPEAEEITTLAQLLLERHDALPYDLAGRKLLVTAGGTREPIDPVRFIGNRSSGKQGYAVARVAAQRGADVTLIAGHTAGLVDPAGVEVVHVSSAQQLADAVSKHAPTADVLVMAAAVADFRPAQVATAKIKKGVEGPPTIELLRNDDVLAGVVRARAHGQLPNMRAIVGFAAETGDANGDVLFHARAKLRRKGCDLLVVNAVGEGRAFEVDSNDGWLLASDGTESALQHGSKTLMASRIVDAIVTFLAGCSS

Measurements from “University of Dundee, Small-Polar-MMV Screening Library” (2021), ChEMBL document CHEMBL3988442.

Pks13 thioesterase: 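Enzyme assay of the thioesterase domain of polyketide synthase 13; the read-out is not stated. Target: Polyketide synthase Pks13, Mycobacterium tuberculosis (UniProt I6X8D2). Concentration: 30 µM. Higher reads as stronger inhibition (inferred from which compounds were picked for retests). About 67,000 compounds were tested under these conditions; 0.46% (about 300) showed 50% or more at least once.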
LiHisRS: 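Enzyme assay of histidyl-tRNA synthetase; the read-out is not stated. Target: Histidine-tRNA ligase, Leishmania infantum (UniProt A4I591). Tested at 30 µM. Higher reads as stronger inhibition (inferred: compounds with an IC50 in retests scored well above the rest). The assay is labelled LdHisRS but filed under L. infantum. About 69,000 compounds were tested under these conditions; 0.6% (about 410) showed 50% or more at least once.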
CoaBC: 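Enzyme assay of CoaBC with a phosphate dye (Biomol Green) read at 650 nm. Target: Coenzyme A biosynthesis protein CoaBC, Mycobacterium tuberculosis (UniProt P9WNZ1). Tested at 30 µM. Direction is inferred from only a few compounds that gave an IC50; most scored high, so higher reads as stronger inhibition. Most strong results did not repeat in a second test. About 67,000 compounds were tested under these conditions; 0.06% (about 40) showed 50% or more at least once.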

Values are the deposited “Percent Effect”, in %. The record does not define 0% and 100%; most values in the screen are far below 50% and negative numbers occur (in some assays of this library far below -100). The compounds are a random part of those screened. A dash means the value is not listed here; it may have been measured.

structure | Pks13 thioesterase | LiHisRS | CoaBC
O=C(c1cccnc1O)N1CCN(Cc2ccccc2F)CC1 | -12.2 | -2.564 | -2.29
Cn1cc(C(=O)NCc2cncc3c2CCN(S(C)(=O)=O)C3)cn1 | -24.85 | 7.921 | 1.114
O=C(O)c1nnn(-c2cc(F)cc(F)c2)c1-c1ccncc1 | 10.38 | -10.53 | 3.038
CCOCCC(=O)NCC(C)c1ccsc1 (configuration not stated) | -2.121 | 0 | -1.485
c1cncc(-c2cccc(-c3ccn(CCN4CCCCC4)n3)c2)c1 | -4.735 | 22.95 | -27.04
CN1CCC(Cc2noc(-c3cn(Cc4ccc(F)cc4)nn3)n2)CC1 | -27.65 | 15 | -26.77
CCC(=O)N1CCC(c2nc(C)ncc2-c2ccncc2)CC1 | -6.324 | 0 | -1.051
Cc1nc(N2CCN(C(=O)c3cccs3)CC2)cc(-n2cccc2)n1 | -47.75 | 16.95 | 13.17
CNc1nc(C(=O)N2C[C@@H]3CCN(C)[C@@H]3C2)cs1 | -3.046 | 17.14 | 6.813
CC(C)(NCCOc1ccc(CC#N)cc1)c1nccs1 | -17.07 | 17.33 | 1.392
Cc1cc(CS(=O)(=O)CC(=O)N2c3ccccc3CC2C)no1 (configuration not stated) | -2.501 | 13.7 | 8.058
O=C(CCCn1ccnc1)NC1CCCN(c2ccccc2Cl)C1 (configuration not stated) | -14.36 | 6.024 | 10.66
O=C(C1=CCCCC1)N1CCC2(CC1)COC(COc1ccccn1)C2 (configuration not stated) | -1.861 | 19.61 | 3.732
CCc1n[nH]c(C2CN(C(=O)c3cncnc3CC)CCO2)n1 (configuration not stated) | -17.97 | 11.3 | 4.962
Cn1cc(N2CC3(COCCN(Cc4ccsc4)C3)OCC2=O)cn1 (configuration not stated) | -9.688 | 0 | -3.218
CSc1ccc(C(=O)N2CC(=O)N(CC(C)(C)C)CC(O)C2)cc1 (configuration not stated) | -17.03 | 14.29 | 2.906
Cc1noc(C)c1CN1CC2(CCN(C(=O)c3cc[nH]n3)C2)CC1=O (configuration not stated) | -17.79 | -340.5 | -40.67
O=C(NCC1CCOCC1)[C@H]1C[C@@H]2CCN(Cc3ccccc3)C[C@H]2O1 | -52.19 | 5.556 | -6.289
Cc1ccn2c(=O)cc(CSCC(=O)Nc3nnc(C(C)C)s3)nc2c1 | -42.03 | 0 | -1.449
c1cnc(N2CCO[C@H]3CN(Cc4csnn4)C[C@H]32)cn1 | -14.53 | 26.32 | -3.055
CC1CN(C)CCN1C(=O)Nc1nc(-c2ccco2)cs1 (configuration not stated) | 14.18 | 42.86 | 3.444
Cc1ccsc1CN(CCN(C)C)C(=O)c1ccc(C#N)nc1 | -9.754 | 22.37 | -15.89
Cc1nn(C)c(C)c1C1COCCN1c1ncnc2c(C)cccc12 (configuration not stated) | -7.296 | 13.39 | 1.653
CC(C)(C)n1cc(NC(=O)C2CN(Cc3ccccc3)CCO2)cn1 (configuration not stated) | 6.239 | 22.32 | 3.306
Cc1cnn(CC2CCCN2C(=O)c2ccccc2-n2cnnn2)c1 (configuration not stated) | -3.703 | 3.571 | 0.6579
CC(NC(=O)OC(C)(C)C)c1nnc(S(=O)(=O)Cc2ccccc2Cl)o1 (configuration not stated) | -2.627 | 6.522 | -1.211
COc1ccc2[nH]c3c(c2c1)CN(c1cc(NCCO)nc(N)n1)CC3 | -11.87 | 33.57 | 4.691
CCc1ncc2c(n1)CN(C(=O)CNC(=O)c1ccccc1)C2 | 6.473 | 0.8333 | -3.851
CN(C1CCN(c2ccccn2)CC1)S(=O)(=O)c1cccc(F)c1 | - | 20.18 | 8.841
CC(C)CCNC(=O)c1cccnc1Oc1cccnc1 | -1.224 | 14.52 | 0.7335
CN1N=C(C(=O)N2CCCC(n3ccnc3)C2)CCC1=O (configuration not stated) | -18.48 | 7.895 | -3.609
OC[C@@H](O)CN(CCC(F)(F)F)c1ncccn1 | 1.787 | 22.81 | 4.032
O=C1NCCCCC1Sc1nnc(C2CC2)n1C1CC1 (configuration not stated) | -23.02 | 15.38 | 8.316
CC(C)Cc1cc(NC(=O)c2cccnc2)n(C)n1 | -3.205 | 12.17 | 4.516
Cc1[nH]ncc1CCCNC(=O)Nc1ccc(S(C)(=O)=O)nc1 | 22.66 | -4.11 | -7.051
CN1CCN(Cc2cccnc2)C(=O)C12CCN(S(C)(=O)=O)CC2 | -30.65 | 11.54 | 1.416
CCN(CC)Cc1ccccc1NC(=O)N(C)Cc1ccc(OC)cc1 | -5.426 | 16.13 | 9.535
COCC1CN(Cc2ccccn2)Cc2nn(C)cc21 (configuration not stated) | 0.01335 | 11.93 | -1.014
CCC(=O)N1CCCC(c2ncc3c(n2)CCN(C)C3)C1 (configuration not stated) | -0.3546 | 15.94 | 2.913
COC(=O)c1ccc(N(C(=O)c2cc(Cl)ccn2)C(C)C)c(C)c1 | -40.37 | -1.036 | -3.949
O=C(NC1CCCC1)c1cnn2c(-c3ccco3)ccnc12 | 16.32 | 7.965 | -17.99
C[S+]([O-])c1ccc(NC(=O)Cc2cccnc2)cc1F (configuration not stated) | - | 25.71 | 14.29

Once more, the final 5:

{"structure": "COCC1CN(Cc2ccccn2)Cc2nn(C)cc21", "stereo": "configuration not stated", "Pks13 thioesterase": 0.01335, "LiHisRS": 11.93, "CoaBC": -1.014}
{"structure": "CCC(=O)N1CCCC(c2ncc3c(n2)CCN(C)C3)C1", "stereo": "configuration not stated", "Pks13 thioesterase": -0.3546, "LiHisRS": 15.94, "CoaBC": 2.913}
{"structure": "COC(=O)c1ccc(N(C(=O)c2cc(Cl)ccn2)C(C)C)c(C)c1", "Pks13 thioesterase": -40.37, "LiHisRS": -1.036, "CoaBC": -3.949}
{"structure": "O=C(NC1CCCC1)c1cnn2c(-c3ccco3)ccnc12", "Pks13 thioesterase": 16.32, "LiHisRS": 7.965, "CoaBC": -17.99}
{"structure": "C[S+]([O-])c1ccc(NC(=O)Cc2cccnc2)cc1F", "stereo": "configuration not stated", "LiHisRS": 25.71, "CoaBC": 14.29}